Measured values from doi:10.1101/2023.12.18.572241.
These are yes or no findings as the source states them, for the method shown.

Amino acid sequences for entries named in this document (tags omitted). A change or cut given only in a name is not applied to a line headed by its entry. Chains listed by the source or under a name are the forms on record and can include a tag or linker.
human ghrelin receptor (spFLAG-GHSR1a) (Q92847, form named): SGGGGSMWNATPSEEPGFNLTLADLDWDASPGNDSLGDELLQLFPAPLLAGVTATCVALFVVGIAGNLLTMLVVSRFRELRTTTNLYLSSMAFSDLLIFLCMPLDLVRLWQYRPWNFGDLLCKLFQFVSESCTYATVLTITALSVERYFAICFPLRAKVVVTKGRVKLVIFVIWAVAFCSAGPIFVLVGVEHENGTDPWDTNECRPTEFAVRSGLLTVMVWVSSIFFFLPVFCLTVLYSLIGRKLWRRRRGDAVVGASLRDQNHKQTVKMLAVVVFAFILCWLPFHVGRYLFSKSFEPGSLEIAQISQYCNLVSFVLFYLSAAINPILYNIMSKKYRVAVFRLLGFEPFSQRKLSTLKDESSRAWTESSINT
human dopamine D2 receptor, long isoform (spcMyc-DRD2) (P14416, form named): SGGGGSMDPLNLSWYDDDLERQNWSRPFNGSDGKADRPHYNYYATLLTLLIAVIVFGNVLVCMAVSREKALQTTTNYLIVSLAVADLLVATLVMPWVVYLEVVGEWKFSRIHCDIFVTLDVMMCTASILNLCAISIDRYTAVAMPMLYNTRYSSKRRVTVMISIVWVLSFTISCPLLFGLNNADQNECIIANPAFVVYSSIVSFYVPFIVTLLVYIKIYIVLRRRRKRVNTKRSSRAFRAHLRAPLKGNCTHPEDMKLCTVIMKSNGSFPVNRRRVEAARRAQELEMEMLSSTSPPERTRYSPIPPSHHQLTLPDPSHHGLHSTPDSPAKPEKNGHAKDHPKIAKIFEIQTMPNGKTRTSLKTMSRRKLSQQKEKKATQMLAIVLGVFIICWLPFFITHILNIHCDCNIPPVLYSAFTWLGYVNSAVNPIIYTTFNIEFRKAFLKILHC

Target: human ghrelin receptor (spFLAG-GHSR1a) (human) (UniProt Q92847)
Assay: STORM super-resolution microscopy, nearest neighbor distance

binding: no binding
Substance: human dopamine D2 receptor, long isoform (spcMyc-DRD2) (from UniProt P14416 1-443)
